According to PubChem BioAssay AID248 (DTP/NCI, 2004):
The list is a part of this screen's results and no random one: it is rich in T/C values a quarter to a half above the control, in often repeated tests (any T/C) and in doses without a T/C. Other doses and runs of a compound stand elsewhere. T/C is the treated group as % of the vehicle group. Some doses have a count of surviving animals in place of a T/C: the source holds a T/C of zero for them, seemingly a mark for toxic or unscored doses. Some survivor counts are full or nearly so, which does not show that the dose was tolerated: survival well below the control is almost never listed, so the zero probably covers shortened survival too. Counts of survivors are from the toxicity check (mostly the fifth day) where no day follows; animals may have died later. Schedules are NCI's codes, read here as Q, the interval in days (D) or hours (H), X, the number of doses. Some molecules as drawn cover several salts, stereoisomers or complexes of the source; a dose is that of the sample tested. Some entries were tested several times; the results are listed from low to high. For survival time, this PubChem deposit counts one and a half times the control or more as active, and values a quarter to a half above the control carry no call in these data; other NCI protocols may use other cut-offs.

Tested on: L1210 leukemia ip in BDF1 mice, survival T/C
Test: NCI In Vivo Anticancer Drug Screen. Data for tumor model L1210 Leukemia (intraperitoneal) in B6D2F1 (BDF1) mice
Details: T/C endpoint: mean survival time, higher T/C = longer survival
[1] = dose: 400.0 mg/kg/injection, schedule: Q04DX003 (ip), vehicle: saline

With `O=NN(CCF)C(=O)NC1CC2CCC1C2` (configuration not stated) the T/C (dose: 11.5 mg/kg/injection, schedule: Q01DX001 (ip), vehicle: other) was 125 % of control, the survivor count (dose: 37.0 mg/kg/injection, schedule: Q01DX001 (ip), vehicle: other) was 2 of 10 and the survivor count (dose: 50.0 mg/kg/injection, schedule: Q01DX001 (ip), vehicle: other) was 2 of 6. The survivor count (dose: 56.0 mg/kg/injection, schedule: Q01DX001 (ip), vehicle: other) was 0 of 10, the survivor count (dose: 62.5 mg/kg/injection, schedule: Q01DX001 (ip), vehicle: other) was 0 of 6 and the survivor count (dose: 75.0 mg/kg/injection, schedule: Q01DX001 (ip), vehicle: other) was 0 of 6. For the same molecule, the survivor count (dose: 84.0 mg/kg/injection, schedule: Q01DX001 (ip), vehicle: other) was 0 of 10 and 5 of 10, the survivor count (dose: 87.5 mg/kg/injection, schedule: Q01DX001 (ip), vehicle: other) was 0 of 6 and the survivor count (dose: 100.0 mg/kg/injection, schedule: Q01DX001 (ip), vehicle: other) was 0 of 6. For the same molecule, the survivor count (dose: 125.0 mg/kg/injection, schedule: Q01DX001 (ip), vehicle: other) was 0 of 6, the survivor count (dose: 126.0 mg/kg/injection, schedule: Q01DX001 (ip), vehicle: other) was 0 of 10 and 5 of 10 and the survivor count (dose: 150.0 mg/kg/injection, schedule: Q01DX001 (ip), vehicle: other) was 0 of 6. The survivor count (dose: 175.0 mg/kg/injection, schedule: Q01DX001 (ip), vehicle: other) was 0 of 6.
With `NC(=S)N/N=C/c1c[nH]c2ccccc12` the survivor count (dose: 400.0 mg/kg/injection, schedule: Q01DX009 (ip), vehicle: Klucel (hydroxypropylcellulose) (HPC)) was 0 of 6.
With `O=C(O)C(O)c1cccc(Cl)c1` (configuration not stated) the survivor count (dose: 300.0 mg/kg/injection, schedule: Q01DX001 (ip), vehicle: acetone) was 1 of 6.
With `Cc1cc(=O)c2ccccc2[nH]1` the survivor count (dose: 200.0 mg/kg/injection, schedule: Q04DX003 (ip), vehicle: saline) was 3 of 6 and the survivor count [1] was 0 of 6.
With `O=S(=O)(O)c1ccc(N=Nc2ccc(O)cc2)cc1` the survivor count (dose: 200.0 mg/kg/injection, schedule: Q04DX003 (ip), vehicle: saline with Tween-80) was 2 of 6, the survivor count (dose: 400.0 mg/kg/injection, schedule: Q04DX003 (ip), vehicle: Klucel (hydroxypropylcellulose) (HPC)) was 4 of 6 and the survivor count (dose: 400.0 mg/kg/injection, schedule: Q04DX003 (ip), vehicle: saline with Tween-80) was 0 of 6.
For `CC1C(C)(C)P(=O)(OCCOP2(=O)C(C)(C)C(C)C2(C)C)C1(C)C` (configuration not stated), the survivor count [1] was 1 of 4.
`COc1c(NC(=O)Nc2ccccc2Cl)cccc1[N+](=O)[O-]` was tested, and the survivor count (dose: 100.0 mg/kg/injection, schedule: Q04DX002 (ip), vehicle: saline with Tween-80) was 3 of 3 and the survivor count (dose: 200.0 mg/kg/injection, schedule: Q04DX002 (ip), vehicle: saline with Tween-80) was 3 of 3.
With `O=C1CCCCCCCS(=O)(=O)C1` the survivor count (dose: 300.0 mg/kg/injection, schedule: Q01DX001 (ip), vehicle: carboxymethylcellulose (CMC)) was 0 of 6.
For `Cc1c(-c2ccccc2)sc(/N=C/c2cc(Br)cc(Br)c2O)c1C#N`, the survivor count (dose: 400.0 mg/kg/injection, schedule: Q01DX009 (ip), vehicle: saline with Tween-80) was 3 of 3.
For `O=S(=O)(Nc1cc(Cl)c(NS(=O)(=O)c2ccccc2)c2ccccc12)c1ccccc1`, the survivor count (dose: 300.0 mg/kg/injection, schedule: Q01DX009 (ip), vehicle: Klucel (hydroxypropylcellulose) (HPC)) was 6 of 6.
With `NC1C2C3C=CC(C3)C12` (configuration not stated) the survivor count (dose: 400.0 mg/kg/injection, schedule: Q01DX009 (ip), vehicle: saline) was 0 of 6.
